# Laboratory results as given in article PMC9462479.
# By UniProt entry, the sequences of proteins in these tests, tags left out.
# UniProt Q8VBV4: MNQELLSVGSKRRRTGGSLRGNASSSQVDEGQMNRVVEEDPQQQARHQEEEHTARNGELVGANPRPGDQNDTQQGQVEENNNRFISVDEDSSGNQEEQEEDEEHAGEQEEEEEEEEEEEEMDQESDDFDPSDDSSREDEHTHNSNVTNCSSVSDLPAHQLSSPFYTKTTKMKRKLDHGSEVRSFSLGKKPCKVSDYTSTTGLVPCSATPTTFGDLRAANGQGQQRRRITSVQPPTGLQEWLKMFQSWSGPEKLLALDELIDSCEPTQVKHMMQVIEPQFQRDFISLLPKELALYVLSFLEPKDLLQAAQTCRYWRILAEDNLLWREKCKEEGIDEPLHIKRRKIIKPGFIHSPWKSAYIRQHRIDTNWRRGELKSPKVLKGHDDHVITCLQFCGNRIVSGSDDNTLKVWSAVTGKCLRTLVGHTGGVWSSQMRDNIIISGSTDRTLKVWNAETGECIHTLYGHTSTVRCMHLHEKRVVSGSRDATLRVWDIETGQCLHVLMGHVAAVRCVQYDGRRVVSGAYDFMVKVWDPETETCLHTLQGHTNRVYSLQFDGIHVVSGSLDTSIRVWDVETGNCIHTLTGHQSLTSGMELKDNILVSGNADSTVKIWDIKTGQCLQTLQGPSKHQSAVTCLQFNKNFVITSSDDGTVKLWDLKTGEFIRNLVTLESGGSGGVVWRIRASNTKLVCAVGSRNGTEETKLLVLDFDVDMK
# UniProt P45481: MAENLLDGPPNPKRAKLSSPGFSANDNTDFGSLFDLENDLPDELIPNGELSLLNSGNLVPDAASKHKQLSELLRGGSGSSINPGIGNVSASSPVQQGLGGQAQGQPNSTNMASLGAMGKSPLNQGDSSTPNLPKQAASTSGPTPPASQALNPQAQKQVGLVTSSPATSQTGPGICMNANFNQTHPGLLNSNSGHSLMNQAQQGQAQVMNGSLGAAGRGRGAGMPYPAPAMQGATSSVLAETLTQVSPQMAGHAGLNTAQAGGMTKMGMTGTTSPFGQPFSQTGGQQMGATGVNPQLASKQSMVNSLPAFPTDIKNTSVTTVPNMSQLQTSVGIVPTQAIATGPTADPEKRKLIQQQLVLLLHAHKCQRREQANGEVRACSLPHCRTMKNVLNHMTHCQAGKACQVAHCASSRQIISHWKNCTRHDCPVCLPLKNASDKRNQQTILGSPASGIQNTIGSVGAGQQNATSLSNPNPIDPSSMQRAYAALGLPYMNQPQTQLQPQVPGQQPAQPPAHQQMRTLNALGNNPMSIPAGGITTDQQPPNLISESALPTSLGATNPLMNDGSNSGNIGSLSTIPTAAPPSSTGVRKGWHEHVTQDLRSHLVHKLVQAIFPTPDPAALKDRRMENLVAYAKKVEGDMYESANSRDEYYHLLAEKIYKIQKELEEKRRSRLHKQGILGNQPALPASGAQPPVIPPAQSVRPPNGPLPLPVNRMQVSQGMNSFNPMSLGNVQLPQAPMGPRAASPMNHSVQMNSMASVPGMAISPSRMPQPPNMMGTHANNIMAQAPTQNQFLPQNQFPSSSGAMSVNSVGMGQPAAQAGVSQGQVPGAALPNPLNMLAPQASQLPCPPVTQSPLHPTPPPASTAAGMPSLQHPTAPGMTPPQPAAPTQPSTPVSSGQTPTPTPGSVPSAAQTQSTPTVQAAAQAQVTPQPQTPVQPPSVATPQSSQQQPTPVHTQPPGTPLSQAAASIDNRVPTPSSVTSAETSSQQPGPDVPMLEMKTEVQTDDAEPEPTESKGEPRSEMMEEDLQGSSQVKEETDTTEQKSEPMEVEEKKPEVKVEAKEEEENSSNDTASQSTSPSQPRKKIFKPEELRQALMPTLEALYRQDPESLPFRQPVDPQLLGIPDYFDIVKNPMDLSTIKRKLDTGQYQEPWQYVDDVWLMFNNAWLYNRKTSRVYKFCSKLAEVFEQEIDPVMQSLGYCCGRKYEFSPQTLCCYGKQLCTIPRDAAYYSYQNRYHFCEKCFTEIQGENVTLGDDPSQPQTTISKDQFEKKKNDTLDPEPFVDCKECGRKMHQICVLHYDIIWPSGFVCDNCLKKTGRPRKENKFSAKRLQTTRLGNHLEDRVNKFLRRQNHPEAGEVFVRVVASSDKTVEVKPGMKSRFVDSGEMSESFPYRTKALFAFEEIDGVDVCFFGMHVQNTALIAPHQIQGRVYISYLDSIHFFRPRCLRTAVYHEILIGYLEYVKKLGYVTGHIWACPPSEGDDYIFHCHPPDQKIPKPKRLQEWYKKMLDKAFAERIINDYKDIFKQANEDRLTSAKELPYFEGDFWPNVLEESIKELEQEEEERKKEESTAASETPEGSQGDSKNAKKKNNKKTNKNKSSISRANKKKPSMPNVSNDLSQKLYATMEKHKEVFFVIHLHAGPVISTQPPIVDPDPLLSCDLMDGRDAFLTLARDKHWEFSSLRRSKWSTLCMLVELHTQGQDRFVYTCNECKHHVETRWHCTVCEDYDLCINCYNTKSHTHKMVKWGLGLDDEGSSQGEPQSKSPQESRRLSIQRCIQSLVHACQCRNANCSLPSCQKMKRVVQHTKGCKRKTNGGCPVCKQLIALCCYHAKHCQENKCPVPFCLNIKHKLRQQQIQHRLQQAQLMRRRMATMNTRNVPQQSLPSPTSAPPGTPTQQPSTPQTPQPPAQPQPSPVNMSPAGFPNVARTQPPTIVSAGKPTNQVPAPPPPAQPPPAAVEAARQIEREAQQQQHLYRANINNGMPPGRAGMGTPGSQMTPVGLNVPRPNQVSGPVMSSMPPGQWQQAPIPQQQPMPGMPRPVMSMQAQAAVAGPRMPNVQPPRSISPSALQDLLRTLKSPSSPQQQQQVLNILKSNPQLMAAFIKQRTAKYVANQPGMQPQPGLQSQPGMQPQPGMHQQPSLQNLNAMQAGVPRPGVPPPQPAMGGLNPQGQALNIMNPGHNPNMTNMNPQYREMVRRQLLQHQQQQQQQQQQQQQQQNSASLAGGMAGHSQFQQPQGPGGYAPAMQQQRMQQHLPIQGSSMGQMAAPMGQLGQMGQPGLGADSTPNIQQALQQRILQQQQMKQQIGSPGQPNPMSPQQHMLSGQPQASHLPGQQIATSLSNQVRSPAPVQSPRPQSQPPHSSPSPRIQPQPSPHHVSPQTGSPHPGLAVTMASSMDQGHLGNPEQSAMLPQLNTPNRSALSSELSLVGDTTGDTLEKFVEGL
# Biological target: T1, FLAG-SREBF1(N), N-terminus of mouse SREBF1, expressed in 3T3-L1–TetON-FLAG-Srebf1(N) adipocytes (mouse) (UniProt Q9WTN3)
# T1 sequence: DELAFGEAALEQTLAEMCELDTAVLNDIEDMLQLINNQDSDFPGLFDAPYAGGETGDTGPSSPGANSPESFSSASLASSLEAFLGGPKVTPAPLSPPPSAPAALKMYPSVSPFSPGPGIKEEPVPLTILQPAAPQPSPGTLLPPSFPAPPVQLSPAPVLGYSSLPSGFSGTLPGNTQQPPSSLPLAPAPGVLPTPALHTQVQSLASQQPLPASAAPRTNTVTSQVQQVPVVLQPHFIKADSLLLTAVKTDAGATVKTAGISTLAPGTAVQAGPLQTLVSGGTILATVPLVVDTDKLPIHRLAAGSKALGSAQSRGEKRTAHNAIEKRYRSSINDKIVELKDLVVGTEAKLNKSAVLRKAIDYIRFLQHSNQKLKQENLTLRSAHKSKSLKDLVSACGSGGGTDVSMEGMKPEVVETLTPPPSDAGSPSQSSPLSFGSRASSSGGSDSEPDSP
# Assay: affinity purification with mass spectrometry; FLAG-tagged bait immunoprecipitated with anti-FLAG M2 Affinity Gel from dialysed nuclear extracts (150 mM KCl, 0.05% NP40) of differentiated 3T3-L1 TetON cells treated with 10 μg/mL doxycycline; eluted with FLAG peptide; LC-MS/MS
row,Substance,binding
1,"FBXW7, endogenous in 3T3-L1 adipocytes (from UniProt Q8VBV4 1-710)",binds
2,"CREBBP, endogenous in 3T3-L1 adipocytes (from UniProt P45481 1-2441)",binds

# No constants are given. Whether binding was seen depends on the method and setting. In cells and extracts the contact can be indirect. Here binding means that the protein was enriched with, or labelled near, the bait; the list need not be complete. Sequences can lack the tags named with a protein.
